One assay has as its target Flag-p21 (UniProt P38936). The assay is described as follows: co-IP; Flag-p21 and NEDD4 co-expressed in HEK 293 T cells; immunoprecipitation with anti-flag antibody and the reverse; western blot. On the technique in general: In western blotting, separated proteins are transferred to a membrane and probed.
The target of assay [1] is NEDD4 (human (endogenous in HCT116 and SW1116)) (UniProt P46934). The assay is described as follows: co-IP; NEDD4 antibody immunoprecipitation from lysates of HCT116 and SW1116 cells with stable NDRG1 overexpression, NDRG1 knockdown and their controls; p21 in the complex detected by western blot.
Assay [2] has the same target. Put plainly: co-IP; endogenous proteins; HCT116 and SW1116 cells lysed in RIPA buffer with protease inhibitors; NEDD4 antibody or p21 antibody overnight at 4 °C, Protein A/G PLUS-Agarose; western blot.
The next assay has as its target NEDD4 (overexpressed) (UniProt P46934). Put plainly: co-IP; Flag-p21 and NEDD4 co-expressed in HEK 293 T cells; immunoprecipitation with anti-flag antibody and the reverse; western blot.
In assay [3] the target is p21 (human (endogenous in HCT116 and SW1116)) (UniProt P38936). The assay is described as follows: co-IP; endogenous proteins; HCT116 and SW1116 cells lysed in RIPA buffer with protease inhibitors; NEDD4 antibody or p21 antibody overnight at 4 °C, Protein A/G PLUS-Agarose; western blot.

Protein sequences, listed by entry. Tags and fused reporters are not part of them.
UniProt P38936: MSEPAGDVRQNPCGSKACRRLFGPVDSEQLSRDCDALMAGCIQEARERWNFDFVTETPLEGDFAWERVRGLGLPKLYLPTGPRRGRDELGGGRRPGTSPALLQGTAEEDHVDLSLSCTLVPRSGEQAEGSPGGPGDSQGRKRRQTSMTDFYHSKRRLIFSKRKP
UniProt P46934: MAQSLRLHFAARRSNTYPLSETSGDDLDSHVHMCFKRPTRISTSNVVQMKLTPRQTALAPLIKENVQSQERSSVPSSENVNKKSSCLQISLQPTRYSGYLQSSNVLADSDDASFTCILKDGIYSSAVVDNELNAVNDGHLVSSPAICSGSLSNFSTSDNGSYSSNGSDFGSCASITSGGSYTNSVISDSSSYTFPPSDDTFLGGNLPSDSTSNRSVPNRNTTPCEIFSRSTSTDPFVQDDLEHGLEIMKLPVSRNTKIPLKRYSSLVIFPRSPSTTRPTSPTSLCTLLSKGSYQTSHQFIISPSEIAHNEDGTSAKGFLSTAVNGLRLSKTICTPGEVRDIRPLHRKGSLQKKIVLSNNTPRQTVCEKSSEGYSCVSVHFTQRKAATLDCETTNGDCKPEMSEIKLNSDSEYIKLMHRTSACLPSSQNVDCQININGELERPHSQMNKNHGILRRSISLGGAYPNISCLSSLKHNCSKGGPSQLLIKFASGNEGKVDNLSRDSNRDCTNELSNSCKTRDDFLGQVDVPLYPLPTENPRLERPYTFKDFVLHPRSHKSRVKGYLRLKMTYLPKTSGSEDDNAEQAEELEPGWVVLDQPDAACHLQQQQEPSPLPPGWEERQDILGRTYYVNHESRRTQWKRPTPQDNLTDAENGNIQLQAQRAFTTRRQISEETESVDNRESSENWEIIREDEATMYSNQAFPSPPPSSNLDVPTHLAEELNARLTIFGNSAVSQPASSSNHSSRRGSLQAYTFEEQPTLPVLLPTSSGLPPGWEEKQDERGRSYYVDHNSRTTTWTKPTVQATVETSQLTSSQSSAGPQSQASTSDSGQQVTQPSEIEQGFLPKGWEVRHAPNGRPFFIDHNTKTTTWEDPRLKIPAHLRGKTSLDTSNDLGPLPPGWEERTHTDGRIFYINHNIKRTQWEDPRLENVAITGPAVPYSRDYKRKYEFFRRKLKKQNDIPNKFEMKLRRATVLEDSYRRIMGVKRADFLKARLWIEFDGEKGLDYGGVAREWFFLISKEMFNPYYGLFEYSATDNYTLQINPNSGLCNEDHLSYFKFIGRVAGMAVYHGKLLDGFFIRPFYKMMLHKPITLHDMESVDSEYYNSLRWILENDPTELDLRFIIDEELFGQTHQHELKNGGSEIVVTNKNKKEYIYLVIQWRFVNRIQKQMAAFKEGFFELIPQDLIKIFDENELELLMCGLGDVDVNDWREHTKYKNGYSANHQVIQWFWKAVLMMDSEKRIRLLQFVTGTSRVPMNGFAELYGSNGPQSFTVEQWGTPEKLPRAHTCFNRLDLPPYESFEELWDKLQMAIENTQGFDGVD

These are yes or no findings as the source states them, for the method shown. Binding seen in cells or lysates may run through a third protein. Some results given as binding are weak or reduced against the parent protein; the word gives no strength.

Among the data in paper PMC6909641 are binding values, retold here.

As to “NEDD4 (overexpressed) (from UniProt P46934 1-1319) (enzyme)”, the binding entry in the assay with Flag-p21 was “binds”.
In the case of p21 (from UniProt P38936 1-164), the binding result in assay [1] and in assay [2] was “binds” in each case.
Take Flag-p21 (from UniProt P38936 1-164): the binding result with NEDD4 (overexpressed) is “binds”.
Consider “NEDD4 (from UniProt P46934 1-1319) (enzyme)”, for which the binding result in assay [3] is reported as “binds”.
